Assay results reported in PMC4682051.
These are yes or no findings as the source states them, for the method shown. In cells and extracts the contact can be indirect. These calls come from enrichment with a bait or labelling near it, and not all partners need be listed. No binding means not detected with the bait.

Protein sequences, listed by entry. Tags and fused reporters are not part of them.
UniProt Q9Z1S5: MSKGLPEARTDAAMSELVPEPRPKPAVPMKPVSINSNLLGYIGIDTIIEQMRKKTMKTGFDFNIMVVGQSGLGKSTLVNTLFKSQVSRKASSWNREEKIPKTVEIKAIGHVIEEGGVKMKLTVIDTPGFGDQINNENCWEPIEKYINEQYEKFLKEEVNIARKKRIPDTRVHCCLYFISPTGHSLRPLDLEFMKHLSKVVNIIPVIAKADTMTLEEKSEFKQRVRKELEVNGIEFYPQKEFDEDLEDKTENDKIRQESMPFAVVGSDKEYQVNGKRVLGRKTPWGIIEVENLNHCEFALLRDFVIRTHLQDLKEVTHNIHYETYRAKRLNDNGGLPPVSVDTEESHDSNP
UniProt P60766: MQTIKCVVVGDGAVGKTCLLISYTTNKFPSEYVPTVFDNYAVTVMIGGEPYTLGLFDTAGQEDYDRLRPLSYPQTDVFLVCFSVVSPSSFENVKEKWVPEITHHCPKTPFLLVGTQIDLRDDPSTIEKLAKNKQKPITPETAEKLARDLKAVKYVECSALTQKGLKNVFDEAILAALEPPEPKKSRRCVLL
UniProt Q62261: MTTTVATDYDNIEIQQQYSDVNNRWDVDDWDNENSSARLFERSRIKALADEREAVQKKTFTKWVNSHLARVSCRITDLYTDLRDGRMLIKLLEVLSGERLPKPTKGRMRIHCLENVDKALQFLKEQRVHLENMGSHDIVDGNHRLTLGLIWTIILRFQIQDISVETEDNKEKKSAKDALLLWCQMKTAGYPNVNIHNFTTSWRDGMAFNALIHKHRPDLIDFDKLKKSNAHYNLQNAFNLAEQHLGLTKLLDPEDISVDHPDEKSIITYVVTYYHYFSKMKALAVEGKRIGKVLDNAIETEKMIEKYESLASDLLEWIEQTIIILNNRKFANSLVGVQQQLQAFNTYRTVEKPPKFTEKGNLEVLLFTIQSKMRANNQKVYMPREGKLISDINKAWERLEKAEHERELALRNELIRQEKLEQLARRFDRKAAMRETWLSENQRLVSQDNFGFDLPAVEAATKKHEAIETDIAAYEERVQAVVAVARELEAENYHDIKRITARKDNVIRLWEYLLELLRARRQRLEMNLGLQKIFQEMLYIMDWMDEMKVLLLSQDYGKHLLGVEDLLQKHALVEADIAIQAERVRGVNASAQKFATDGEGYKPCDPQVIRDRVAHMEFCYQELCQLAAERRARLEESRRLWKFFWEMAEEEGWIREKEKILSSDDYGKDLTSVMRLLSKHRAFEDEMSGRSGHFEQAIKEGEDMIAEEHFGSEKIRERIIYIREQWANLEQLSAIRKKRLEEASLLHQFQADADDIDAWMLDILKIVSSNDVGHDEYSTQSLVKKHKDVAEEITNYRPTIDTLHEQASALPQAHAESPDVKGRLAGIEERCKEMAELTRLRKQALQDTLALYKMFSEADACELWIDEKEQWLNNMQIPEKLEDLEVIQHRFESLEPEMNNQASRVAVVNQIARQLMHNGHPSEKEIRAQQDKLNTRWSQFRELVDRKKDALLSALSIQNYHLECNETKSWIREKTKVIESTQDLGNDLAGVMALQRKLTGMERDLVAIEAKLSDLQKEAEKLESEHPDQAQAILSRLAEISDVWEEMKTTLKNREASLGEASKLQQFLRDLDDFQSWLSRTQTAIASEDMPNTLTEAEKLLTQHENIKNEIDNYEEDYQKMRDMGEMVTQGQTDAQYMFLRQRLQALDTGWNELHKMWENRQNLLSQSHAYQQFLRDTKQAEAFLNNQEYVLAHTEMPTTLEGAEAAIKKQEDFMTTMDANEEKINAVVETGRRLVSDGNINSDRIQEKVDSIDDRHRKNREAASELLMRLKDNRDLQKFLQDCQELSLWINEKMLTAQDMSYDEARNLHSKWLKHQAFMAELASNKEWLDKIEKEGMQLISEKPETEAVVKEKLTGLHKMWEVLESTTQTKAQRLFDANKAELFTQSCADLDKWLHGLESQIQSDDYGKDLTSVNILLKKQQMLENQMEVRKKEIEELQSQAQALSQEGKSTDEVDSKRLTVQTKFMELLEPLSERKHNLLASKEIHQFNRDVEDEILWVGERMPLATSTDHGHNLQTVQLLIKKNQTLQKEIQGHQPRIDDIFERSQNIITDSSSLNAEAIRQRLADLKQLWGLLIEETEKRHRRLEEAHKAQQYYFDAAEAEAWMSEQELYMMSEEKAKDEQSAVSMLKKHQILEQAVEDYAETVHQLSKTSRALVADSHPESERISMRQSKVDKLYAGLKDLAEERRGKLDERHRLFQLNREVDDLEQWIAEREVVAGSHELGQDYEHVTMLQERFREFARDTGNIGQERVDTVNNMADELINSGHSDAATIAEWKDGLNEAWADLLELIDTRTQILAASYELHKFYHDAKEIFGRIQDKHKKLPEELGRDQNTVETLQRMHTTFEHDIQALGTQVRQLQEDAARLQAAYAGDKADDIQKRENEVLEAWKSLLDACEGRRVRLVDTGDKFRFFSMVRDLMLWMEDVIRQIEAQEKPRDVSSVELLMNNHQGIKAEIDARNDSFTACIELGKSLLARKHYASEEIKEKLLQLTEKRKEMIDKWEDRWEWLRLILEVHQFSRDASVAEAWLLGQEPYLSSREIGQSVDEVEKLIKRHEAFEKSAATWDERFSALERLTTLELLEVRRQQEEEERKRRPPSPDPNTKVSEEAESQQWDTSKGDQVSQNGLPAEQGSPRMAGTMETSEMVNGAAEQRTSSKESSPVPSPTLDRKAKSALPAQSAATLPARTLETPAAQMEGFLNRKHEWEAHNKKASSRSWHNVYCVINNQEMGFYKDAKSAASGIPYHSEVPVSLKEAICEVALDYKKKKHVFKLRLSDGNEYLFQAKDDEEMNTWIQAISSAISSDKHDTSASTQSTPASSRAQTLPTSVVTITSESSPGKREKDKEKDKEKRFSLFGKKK
UniProt Q61879: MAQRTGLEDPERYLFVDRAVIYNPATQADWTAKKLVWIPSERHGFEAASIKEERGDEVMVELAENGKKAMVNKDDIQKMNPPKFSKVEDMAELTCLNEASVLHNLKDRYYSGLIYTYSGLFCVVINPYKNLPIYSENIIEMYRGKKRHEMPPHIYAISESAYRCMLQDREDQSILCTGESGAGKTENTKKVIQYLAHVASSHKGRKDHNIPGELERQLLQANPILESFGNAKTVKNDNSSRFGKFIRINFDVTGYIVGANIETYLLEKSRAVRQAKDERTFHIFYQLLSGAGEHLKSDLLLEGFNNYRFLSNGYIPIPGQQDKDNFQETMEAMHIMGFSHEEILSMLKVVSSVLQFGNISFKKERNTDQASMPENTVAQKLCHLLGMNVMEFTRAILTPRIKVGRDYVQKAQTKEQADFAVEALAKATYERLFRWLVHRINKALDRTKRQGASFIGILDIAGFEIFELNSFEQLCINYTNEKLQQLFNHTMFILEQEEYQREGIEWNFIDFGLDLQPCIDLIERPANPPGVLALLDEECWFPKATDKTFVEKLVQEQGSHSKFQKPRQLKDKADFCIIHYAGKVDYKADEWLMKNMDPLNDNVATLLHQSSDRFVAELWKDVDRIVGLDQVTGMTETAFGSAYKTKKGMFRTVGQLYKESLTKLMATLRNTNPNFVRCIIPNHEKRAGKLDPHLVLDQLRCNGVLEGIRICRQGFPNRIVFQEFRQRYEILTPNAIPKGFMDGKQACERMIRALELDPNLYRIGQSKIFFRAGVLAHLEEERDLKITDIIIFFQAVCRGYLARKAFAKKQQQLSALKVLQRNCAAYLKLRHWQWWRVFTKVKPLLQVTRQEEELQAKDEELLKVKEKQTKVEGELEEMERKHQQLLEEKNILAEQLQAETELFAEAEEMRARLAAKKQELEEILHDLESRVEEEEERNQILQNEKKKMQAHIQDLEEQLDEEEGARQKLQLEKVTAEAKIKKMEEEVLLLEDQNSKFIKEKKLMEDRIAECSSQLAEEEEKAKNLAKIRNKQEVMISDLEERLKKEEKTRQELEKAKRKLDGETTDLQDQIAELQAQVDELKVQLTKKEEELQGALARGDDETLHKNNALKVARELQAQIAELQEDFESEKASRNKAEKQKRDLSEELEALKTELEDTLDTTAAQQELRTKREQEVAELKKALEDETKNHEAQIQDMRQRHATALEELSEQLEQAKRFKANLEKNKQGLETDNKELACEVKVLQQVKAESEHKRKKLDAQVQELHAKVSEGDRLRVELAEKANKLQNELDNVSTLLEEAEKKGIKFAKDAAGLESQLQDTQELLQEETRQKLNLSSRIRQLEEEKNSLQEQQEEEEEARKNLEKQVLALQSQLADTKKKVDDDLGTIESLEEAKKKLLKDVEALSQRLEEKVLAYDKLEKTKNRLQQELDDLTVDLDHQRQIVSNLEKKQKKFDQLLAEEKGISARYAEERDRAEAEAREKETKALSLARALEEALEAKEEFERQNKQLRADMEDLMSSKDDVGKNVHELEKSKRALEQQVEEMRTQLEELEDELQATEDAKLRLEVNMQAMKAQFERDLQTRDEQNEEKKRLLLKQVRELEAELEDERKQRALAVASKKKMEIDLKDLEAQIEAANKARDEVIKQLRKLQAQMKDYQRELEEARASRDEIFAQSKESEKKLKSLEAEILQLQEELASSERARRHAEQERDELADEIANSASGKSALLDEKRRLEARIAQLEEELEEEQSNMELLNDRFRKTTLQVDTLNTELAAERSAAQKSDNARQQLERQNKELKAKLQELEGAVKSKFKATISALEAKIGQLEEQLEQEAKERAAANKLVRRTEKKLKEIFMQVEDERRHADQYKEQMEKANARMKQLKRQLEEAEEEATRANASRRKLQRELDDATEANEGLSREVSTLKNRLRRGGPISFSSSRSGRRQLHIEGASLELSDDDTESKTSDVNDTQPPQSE
UniProt Q8R527: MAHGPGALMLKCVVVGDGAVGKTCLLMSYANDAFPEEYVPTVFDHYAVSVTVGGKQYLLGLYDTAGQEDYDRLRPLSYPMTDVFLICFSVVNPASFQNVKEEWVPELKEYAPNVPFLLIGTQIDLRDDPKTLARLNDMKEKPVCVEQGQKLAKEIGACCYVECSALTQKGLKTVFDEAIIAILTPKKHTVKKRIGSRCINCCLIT

T1: CDC42EP4 (mouse (endogenous in cerebellum)) (UniProt Q9JM96)
T1 sequence: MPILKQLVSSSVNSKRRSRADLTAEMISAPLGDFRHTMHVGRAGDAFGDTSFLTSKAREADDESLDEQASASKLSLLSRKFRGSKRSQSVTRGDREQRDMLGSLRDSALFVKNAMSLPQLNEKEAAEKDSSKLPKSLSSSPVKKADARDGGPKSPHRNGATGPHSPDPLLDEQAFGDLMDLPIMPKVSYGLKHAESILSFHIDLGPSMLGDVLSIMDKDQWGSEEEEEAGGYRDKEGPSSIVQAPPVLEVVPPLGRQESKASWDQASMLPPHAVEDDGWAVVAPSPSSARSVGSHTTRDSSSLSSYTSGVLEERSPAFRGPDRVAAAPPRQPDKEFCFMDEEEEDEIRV


Target: T1, CDC42EP4 (mouse (endogenous in cerebellum))
Assay: affinity purification with mass spectrometry; immunoaffinity for CDC42EP4 (anti-CDC42EP4 on protein A beads) from WT mouse cerebellar lysate; buffer C (20 mM Tris-HCl pH 8.0, 0.15 M NaCl, 1 mM EDTA, 1% NP-40), more stringent wash; LC-MS/MS; controls: KO lysate and nonimmune IgG

binding	Molecule
binds	α-II spectrin (from UniProt P16546 1-2472)
binds	SEPT3 (from UniProt Q9Z1S5 1-350)
no binding	CDC42 (from UniProt P60766 1-191)
binds	β-II spectrin (from UniProt Q62261 1-2363)
binds	Myosin-10 (nonmuscle myosin heavy chain IIB) (from UniProt Q61879 1-1976)
binds	SEPT2 (protein, UniProt P42208 1-361) MSKQQPTQFINPETPGYVGFANLPNQVHRKSVKKGFEFTLMVVGESGLGKSTLINSLFLTDLYPERIIPGAAEKIERTVQIEASTVEIEERGVKLRLTVVDTPGYGDAINCRDCFKTIISYIDEQFERYLHDESGLNRRHIIDNRVHCCFYFISPFGHGLKPLDVAFMKAIHNKVNIVPVIAKADTLTLKERERLKKRILDEIEEHSIKIYHLPDAESDEDEDFKEQTRLLKASIPFSVVGSNQLIEAKGKKVRGRLYPWGVVEVENPEHNDFLKLRTMLITHMQDLQEVTQDLHYENFRSERLKRGGRKVENEDMNKDQILLEKEAELRRMQEMIARMQAQMQMQMQGGDSDSGALGQHV
binds	SEPT8 (protein, UniProt Q8CHH9 1-429) MAATDLERVSNAEPEPRSLSLGGHVGFDSLPDQLVSKSVTQGFSFNILCVGETGIGKSTLMNTLFNTTFETEEASHHEECVRLRPQTYDLQESNVHLKLTIVDAVGFGDQINKDDSYRPIVDYIDAQFENYLQEELKIRRSLFDYHDTRIHVCLYFITPTGHSLKSLDLVTMKKLDSKVNIIPIIAKADTISKSELHKFKIKIMGELVSNGVQIYQFPTDDEAVAEINAVMNAHLPFAVVGSTEEVKVGNKLVRARQYPWGVVQVENENHCDFVKLREMLIRVNMEDLREQTHSRHYELYRRCKLEEMGFQDSDGDSQPFSLQETYEAKRKEFLSELQRKEEEMRQMFVNKVKETELELKEKERELHEKFEHLKRIHQEEKRKVEEKRRELEEETNAFNCRKAAMEALQSQALHATSQQPLRKDKDKKN
binds	SEPT6 (protein, UniProt Q9R1T4 1-434) MAAADIARQVGEDCRTVPLAGHVGFDSLPDQLVNKSVSQGFCFNILCVGETGLGKSTLMDTLFNTKFEGEPATHTQPGVQLQSNTYDLQESNVGLKLTIVSTVGFGDQINKEDSYKPIVEFIDAQFEAYLQEELKIRRVLHSYHDSRIHVCLYFIAPTGHSLKSLDLVTMKKLDSKVNIIPVIAKSDAISKSELAKFKIKITSELVSNGVQIYQFPTDDESVSEINGTMNAHLPFAVVGSTEEVKIGNKMMRARQYPWGTVQVENEAHCDFVKLREMLIRVNMEDLREQTHARHYELYRRCKLEEMGFKDTDPDSKPFSLQETYEAKRNEFLGELQKKEEEMRQMFVQRVKEKEAELKEAEKELHEKFDRLKKLHQEEKKKLEDKKKCLDEEMNAFKQRKAAAELLQSQGSQAGGSQTLKRDKEKKNNPWLCIE
binds	SEPT5 (protein, UniProt Q9Z2Q6 1-369) MSTGLRYKSKLATPEDKQDIDKQYVGFATLPNQVHRKSVKKGFDFTLMVAGESGLGKSTLVHSLFLTDLYKDRKLLSAEERINQTVEILKHTVDIEEKGVKLKLTIVDTPGFGDAVNNSECWKPITDYVDQQFEQYFRDESGLNRKNIQDNRVHCCLYFISPFGHGLRPVDVGFMKALHEKVNIVPLIAKADCLVPSEIRKLKDRIREEIDKFGIHVYQFPECDSDEDEDFKQQDRELKESAPFAVIGSNTVVEAKGQRVRGRLYPWGIVEVENQAHCDFVKLRNMLIRTHMHDLKDVTCDVHYENYRAHCIQQMTSKLTQDSRMESPIPILPLPTPDAETEKLIRMKDEELRRMQEMLQKMKQQMQDQ
binds	SEPT11 (protein, UniProt Q8C1B7 1-431) MAVAVGRPSNEELRNLSLSGHVGFDSLPDQLVNKSTSQGFCFNILCVGETGIGKSTLMDTLFNTKFESDPATHNEPGVRLKARSYELQESNVRLKLTIVDTVGFGDQINKDDSYKPIVEYIDAQFEAYLQEELKIKRSLFNYHDTRIHACLYFIAPTGHSLKSLDLVTMKKLDSKVNIIPIIAKADTIAKNELHKFKSKIMSELVSNGVQIYQFPTDEETVAEINATMSVHLPFAVVGSTEEVKIGNKMAKARQYPWGVVQVENENHCDFVKLREMLIRVNMEDLREQTHTRHYELYRRCKLEEMGFKDTDPDSKPFSLQETYEAKRNEFLGELQKKEEEMRQMFVMRVKEKEAELKEAEKELHEKFDLLKRTHQEEKKKVEDKKKELEEEVSNFQKKKAAAQLLQSQAQQSGAQQTKKDKDKKNPWLCTE
binds	SEPT4 (protein, UniProt P28661 1-478) MDHSLGWQGNSVPEDGTEAGIKHFLEDSSDDAELSKFVKDFPGSEPYHSAESKTRVARPQILEPRPQSPDLCDDDVEFRGSLWPQPSDSQQYFSAPAPLSPSSRPRSPWGKLDPYDSSEDDKEYVGFATLPNQVHRKSVKKGFDFTLMVAGESGLGKSTLVNSLFLTDLYRDRKLLGAEERIMQTVEITKHAVDIEEKGVRLRLTIVDTPGFGDAVNNTECWKPVAEYIDQQFEQYFRDESGLNRKNIQDNRVHCCLYFISPFGHGLRPLDVEFMKALHQRVNIVPILAKADTLTPPEVDRKKCKIREEIEHFGIKIYQFPDCDSDEDEDFKLQDQALKESIPFAVIGSNTVVEARGRRVRGRLYPWGIVEVENPGHCDFVKLRTMLVRTHMQDLKDVTRETHYENYRAQCIQSMTRLVVKERNRNKLTRESGTDFPIPAVPPGTDPETEKLIREKDEELRRMQEMLHKIQRQMKETH
binds	SEPT7 (protein, UniProt O55131 1-436) MSVSARSAAAEERSVNCGTMAQPKNLEGYVGFANLPNQVYRKSVKRGFEFTLMVVGESGLGKSTLINSLFLTDLYSPEYPGPSHRIKKTVQVEQSKVLIKEGGVQLLLTIVDTPGFGDAVDNSNCWQPVIDYIDSKFEDYLNAESRVNRRQMPDNRVQCCLYFIAPSGHGLKPLDIEFMKRLHEKVNIIPLIAKADTLTPEECQQFKKQIMKEIQEHKIKIYEFPETDDEEENKLVKKIKDRLPLAVVGSNTIIEVNGKRVRGRQYPWGVAEVENGEHCDFTILRNMLIRTHMQDLKDVTNNVHYENYRSRKLAAVTYNGVDNNKNKGQLTKSPLAQMEEERREHVAKMKKMEMEMEQVFEMKVKEKVQKLKDSEAELQRRHEQMKKNLEAQHKELEEKRRQFEEEKANWEAQQRILEQQNSSRTLEKNKKKGKIF
binds	SEPT10 (protein, UniProt Q8C650 1-452) MASCDEIKEHPRSLSMCGHVGFESLPDQLVDRSIEQGFCFNILCVGETGIGKSTLINTLFNTNFEELESSHFCPCVRLRAQTYELQESNVRLKLTIVNTVGFGDQINKEDSYQPIVDYIDDQFEAYLQEEVKIKRALFNYHDSRIHVCLYFIAPTGHSLRTLDLLTMKSLDNKVNIIPLIAKADTISKSELQKFKMKLMNELVINGVQIYQFPTDDDTTSKINGAMNGHLPFAVVGSMDEIKVGNKMVKGRQYPWGIVQVENENHCDFVKLREMLICTNMEDLREQTHMRHYELYRRCKLQEMGFVDMGPENKPLSLQETYEAKRHEFYGERQRKEEQMKQMFVQRVKEKEAILKEAERELQAKFEHLKRIHQEERMKLEEKRRMLEEESVAFAKKKATCELFPNQSFLASGSSIRKDKDRKKADGASAFCDCLTAQESVRLCISSPRKDMD

Molecule	binding
Tc10/RhoQ (from UniProt Q8R527 1-205)	no binding
